# At least one compound was matched to its structure with a doubt left.
# System: Tuberous sclerosis complex model mice
# Assay: Test Example 5: number of epileptic seizures (intraperitoneal administration)
# Type: in vivo
# Conditions: intraperitoneal 3 mg/kg/day for 7 days, versus saline
# Procedure: FIG. 3 is a graph showing results obtained by intraperitoneally administering sirolimus (3 mg/kg/day) or saline to model mice and control mice (normal mice) once a day for 7 days (n=6 in each group). Homo represents tuberous sclerosis complex model mice, and Ct represents control mice (normal mice). *P<0.05, **P<0.01
# Sirolimus (3 mg/kg/day) or a placebo (saline) was intraperitoneally administered to model mice and normal mice similar to those in Test Example 1 once a day for 7 days. The number of seizures was measured by observing the mice for 2 minutes 5 times per day (n=6 in each group). […] The number of seizures over 7 days in the group intraperitoneally administered sirolimus was about 5, which was nearly equal to the number of seizures in the case where the 0.2 wt % sirolimus gel was administered to the forehead once a day at 5 mg (10 μg in terms of sirolimus).
smiles,measurement,value
"CO[C@H]1C[C@@H]2CC[C@@H](C)[C@@](O)(O2)C(=O)C(=O)N2CCCC[C@H]2C(=O)O[C@H]([C@H](C)C[C@@H]2CC[C@@H](O)[C@H](OC)C2)CC(=O)[C@H](C)/C=C(\C)[C@@H](O)[C@@H](OC)C(=O)[C@H](C)C[C@H](C)/C=C/C=C/C=C/1C [Sirolimus, sirolimus]",effect on number of seizures (FIG. 3),reduced the number of seizures

# Source: patent publication US20240058365A1, “External Preparation for Treating Epilepsy or Autism Spectrum Disorder” (OSAKA UNIVERSITY, priority 2019, published 2024)
